PubChem BioAssay AID504834 (National Center for Advancing Translational Sciences (NCATS), 2011)
The whole screen tested about 320,000 compounds, of which about 22,000 (6.9%) were called active. The inconclusive results got no clear call from the source; some entries with a clear call stand among them for comparison. Calls follow the shape of the dose curve; as a rule, active = well fitted inhibition curve with a large enough effect; inconclusive = small, poorly fitted or top-dose-only effect, or another doubt; inactive = no such curve, though single readings can be large or run the other way. A potency beside an inconclusive call is a rough fit, not a confirmed value.

experiment: Primary qHTS for delayed death inhibitors of the malarial parasite plastid, 96 hour incubation; details: P. falciparum luciferase reporter growth; series mostly up to 28.7 µM; activity change, negative = inhibition: at the top concentration
Outline: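 Two parasite generations (96 h, 37 C, 5% CO2) of compound exposure in infected erythrocytes (0.05% parasitemia, 2% hematocrit). Luciferase-reporter P. falciparum; decreased luminescence indicates inhibited growth, aimed at apicoplast-acting delayed death.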
% is scaled to controls: 0 for no effect and ±100 for the full control effect; potency is read from the fitted curve at half-maximal effect.

| SMILES | activity change, negative = inhibition | Potency |
| --- | --- | --- |
| Cc1cc(C)c(NC(=O)COC(=O)CCc2ccc(S(=O)(=O)N3CCCCC3)cc2)c(C)c1 | inactive: -11.1% |  |
| COCCN(Cc1nc(-c2ccc(C(F)(F)F)cc2)no1)C(C)C |  | inconclusive: 18.5 µM [inhibitor, single point] |
| O=C(Cc1cccs1)OCC(=O)c1ccco1 | inactive: 31.1% |  |
| C/C(=N\NC(=O)OC(C)(C)C)c1ccc(-n2ccnc2)cc1 |  | inconclusive: 1.85 µM [inhibitor, single point] |
| Cc1cc[n+](CC[n+]2ccc(C)cc2)cc1 | inactive: 13.3% |  |
| CCCCn1nnc(NC(=O)c2ccc(-c3ccccc3[N+](=O)[O-])o2)n1 |  | active: 8.28 µM |
| CCn1c(SCC(=O)NCC2CCCO2)nc2c(c1=O)SC(C)C2 (stereo not given) |  | inconclusive: 18.5 µM [inhibitor, single point] |
| O=C([C@H](Cc1ccccc1)NS(=O)(=O)c1ccc(Cl)cc1)N1CC[C@@]2(O)CCCC[C@H]2C1 |  | inconclusive: 8.28 µM [inhibitor, partial curve] |
| Cc1cc(OCCCC(=O)Nc2cccc(-n3cnnn3)c2)ccc1Cl |  | inconclusive: 18.5 µM [inhibitor, single point] |
| COC(=O)CNC(=O)COC(=O)/C=C/c1ccccc1[N+](=O)[O-] | inactive: -12.6% |  |
| Cc1ccc2c(c1)c1c(n2CC(O)CNC(C)(C)C)CCCC1 (stereo not given) |  | inconclusive: 13.1 µM [inhibitor, single point] |
| CC(=O)Nc1ccc(S(=O)(=O)NCCc2ccc(F)cc2)cc1 |  | inconclusive: 0.0928 µM [inhibitor, full curve, poor fit] |
| COc1ccc(S(=O)(=O)N2CCOCC2)cc1NC(=O)CCc1nc2ccccc2c(=O)[nH]1 | inactive: -1.72% |  |
| CCC(C)Nc1nc(N)c([N+](=O)[O-])c(N2CCCCCC2)n1 (stereo not given) |  | inconclusive: 0.586 µM [inhibitor, partial curve, poor fit] |
| COc1ccccc1C(O)(C(=O)NNc1ccccc1C)c1ccccc1OC |  | active: 6.57 µM |
| CCc1cccc(C)c1NC(=O)COC(=O)Cn1c(C)csc1=O | inactive: 27.5% |  |
| COc1ccc(C(=O)OCC(=O)Nc2cc(S(=O)(=O)N3CCOCC3)ccc2N2CCCC2)cc1 | inactive: -22.9% |  |
| CCc1nonc1NC(=O)c1oc2ccc(Br)cc2c1C | inactive: 26.1% |  |
| O=C(CSc1nnc(-c2ccncc2)n1Cc1ccco1)c1ccc(Cl)cc1 |  | inconclusive: 10.4 µM [inhibitor, single point] |
| Cc1ccccc1NC(=O)CSc1nnc(CNC(=O)c2ccco2)n1C |  | inconclusive: 18.5 µM [inhibitor, single point] |
| CCN1C(=O)N(CC)C(=O)C2(Cc3ccccc3N3CCN(c4ccccc4)CC32)C1=O (stereo not given) |  | inconclusive: 18.5 µM [inhibitor, single point] |
| CCCn1nc(C(=O)N2CCc3ccccc32)c2ccccc2c1=O |  | inconclusive: 0.131 µM [inhibitor, full curve, poor fit] |
| COc1ccc(C(=O)OCc2nc(N)nc(Nc3ccccc3C)n2)cc1OC |  | inconclusive: 16.5 µM [inhibitor, single point] |
| N#Cc1ccc(S(=O)(=O)N2CCCN(c3nc4ccc(Cl)cc4s3)CC2)cc1 |  | inconclusive: 13.1 µM [inhibitor, single point] |

| SMILES | activity change, negative = inhibition | Potency |
| --- | --- | --- |
| Cc1ccc(-c2cc(=O)c3ccccc3[nH]2)cc1 |  | inconclusive: 10.4 µM [inhibitor, partial curve, poor fit] |
| COc1ccc(N(CC(=O)Nc2cc(Cl)ccc2C)S(=O)(=O)c2c(C)n[nH]c2C)cc1 |  | inconclusive: 14.7 µM [inhibitor, single point] |
| Cc1n[nH]c(C)c1CCN(C)C(=O)C1CCC(=O)N(CC2CCCCC2)C1 (stereo not given) |  | inconclusive: 23.3 µM [inhibitor, partial curve, poor fit] |
| O=C1NC(=O)[C@]2(Cc3ccccc3N3CCN(c4ccccc4)CC32)C(=O)N1Cc1ccccc1 (stereo not given in full) |  | active: 9.28 µM |
| Cc1cc(C(F)(F)F)nc(SCC(=O)Nc2nccs2)n1 |  | inconclusive: 2.33 µM [inhibitor, single point] |
| Cc1cccc2cc(CN(CC3CCCO3)S(=O)(=O)c3ccccc3)c(=O)[nH]c12 (stereo not given) | inactive: -1.29% |  |
| CCOC(=O)C1=C(C)NC(=O)NC1c1ccc(OC(=O)c2ccco2)cc1 (stereo not given) |  | active: 7.38 µM |
| Cc1ccc(NC(=O)C2CCCN(S(=O)(=O)c3cccc4cccnc34)C2)cc1 (stereo not given) |  | inconclusive: 18.5 µM [inhibitor, single point] |
| O=C(/C=C/Nc1ccccc1Br)c1ccccn1 |  | inconclusive: 18.5 µM [inhibitor, single point] |
| CCOC(=O)C1CCN(C(=O)c2sc3ncnc(N4CCC(C)CC4)c3c2C)CC1 |  | inconclusive: 18.5 µM [inhibitor, single point] |
| O=C(NCCN1CCCCC1)c1ccc(Oc2cc(Cl)cc(Cl)c2)o1 |  | active: 4.65 µM |
| CCCCC(CCC(=O)Nc1cccc([N+](=O)[O-])c1)C(=O)O (stereo not given) | inactive: 10.3% |  |
| C=CCn1c(SCc2csc(C)n2)nc2scc(-c3ccc(C)o3)c2c1=O |  | inconclusive: 8.28 µM [inhibitor, partial curve, poor fit] |
| CC(=O)Nc1ccc(NC(=O)CSc2nnc(NC(=O)C3CC(=O)N(c4ccc(F)cc4)C3)s2)cc1 (stereo not given) |  | inconclusive: 10.4 µM [inhibitor, single point] |
| Clc1ccc(CN2CCC(c3ccccc3)CC2)cc1 | inactive: -17.3% |  |
| CC(CC(=O)Nc1ccc2c(c1)OCCO2)c1ccccc1 (stereo not given) | inactive: 0.792% |  |
| O=[N+]([O-])c1cc(Cl)ccc1Oc1ccc(-c2nnco2)cc1 |  | inconclusive: 18.5 µM [inhibitor, single point] |
| O=C(NC(Cc1c[nH]c2ccccc12)C(=O)Nc1ccc(OC(F)(F)F)cc1)c1cccs1 (stereo not given) |  | inconclusive: 18.5 µM [inhibitor, single point] |
| COc1ccc(NS(=O)(=O)c2c(C)[nH]c(C)c2C(=O)N2CCCCC2)cc1Cl |  | inconclusive: 9.28 µM [inhibitor, partial curve, poor fit] |
| CCOC(=O)N1CCC(Nc2c(N3CCN(c4cc(Cl)ccc4C)CC3)c(=O)c2=O)CC1 |  | active: 4.65 µM |
| Cc1cccc(CS(=O)(=O)c2ncc(Cl)c(C(=O)Nc3c(C)cccc3C)n2)c1 | inactive: 36.9% |  |
| Cc1ccn2c(NC(=O)c3ccccc3)c(-c3ccccc3)nc2c1 | inactive: -23.7% |  |
| NCC[C@H](O)C(=O)N[C@@H]1C[C@H](N)[C@@H](O[C@H]2O[C@H](CN)CC[C@H]2N)[C@H](O)[C@H]1O[C@H]1O[C@H](CO)[C@@H](O)[C@H](N)[C@H]1O | inactive: -16.6% |  |
| COc1ccc(C)cc1NC(=O)CO/N=C(\N)CC(=O)Nc1ccccc1OC |  | inconclusive: 11.7 µM [inhibitor, single point] |

14 entries from above, arranged by molecular weight, ascending.

| SMILES | activity change, negative = inhibition | Potency |
| --- | --- | --- |
| Cc1ccc(-c2cc(=O)c3ccccc3[nH]2)cc1 |  | inconclusive: 10.4 µM [inhibitor, partial curve, poor fit] |
| Clc1ccc(CN2CCC(c3ccccc3)CC2)cc1 | inactive: -17.3% |  |
| CC(CC(=O)Nc1ccc2c(c1)OCCO2)c1ccccc1 (stereo not given) | inactive: 0.792% |  |
| CCCCC(CCC(=O)Nc1cccc([N+](=O)[O-])c1)C(=O)O (stereo not given) | inactive: 10.3% |  |
| O=[N+]([O-])c1cc(Cl)ccc1Oc1ccc(-c2nnco2)cc1 |  | inconclusive: 18.5 µM [inhibitor, single point] |
| Cc1n[nH]c(C)c1CCN(C)C(=O)C1CCC(=O)N(CC2CCCCC2)C1 (stereo not given) |  | inconclusive: 23.3 µM [inhibitor, partial curve, poor fit] |
| Cc1ccc(NC(=O)C2CCCN(S(=O)(=O)c3cccc4cccnc34)C2)cc1 (stereo not given) |  | inconclusive: 18.5 µM [inhibitor, single point] |
| Cc1cccc2cc(CN(CC3CCCO3)S(=O)(=O)c3ccccc3)c(=O)[nH]c12 (stereo not given) | inactive: -1.29% |  |
| C=CCn1c(SCc2csc(C)n2)nc2scc(-c3ccc(C)o3)c2c1=O |  | inconclusive: 8.28 µM [inhibitor, partial curve, poor fit] |
| COc1ccc(NS(=O)(=O)c2c(C)[nH]c(C)c2C(=O)N2CCCCC2)cc1Cl |  | inconclusive: 9.28 µM [inhibitor, partial curve, poor fit] |
| CCOC(=O)N1CCC(Nc2c(N3CCN(c4cc(Cl)ccc4C)CC3)c(=O)c2=O)CC1 |  | active: 4.65 µM |
| COc1ccc(N(CC(=O)Nc2cc(Cl)ccc2C)S(=O)(=O)c2c(C)n[nH]c2C)cc1 |  | inconclusive: 14.7 µM [inhibitor, single point] |
| O=C1NC(=O)[C@]2(Cc3ccccc3N3CCN(c4ccccc4)CC32)C(=O)N1Cc1ccccc1 (stereo not given in full) |  | active: 9.28 µM |
| CC(=O)Nc1ccc(NC(=O)CSc2nnc(NC(=O)C3CC(=O)N(c4ccc(F)cc4)C3)s2)cc1 (stereo not given) |  | inconclusive: 10.4 µM [inhibitor, single point] |

More compounds follow:

| SMILES | activity change, negative = inhibition | Potency |
| --- | --- | --- |
| COc1ccc(CNCCNC(=O)c2cccs2)c(OC)c1OC |  | inconclusive: 10.4 µM [inhibitor, single point] |
| Cc1ccc(-c2nc3cnccn3c2Nc2ccc3c(c2)OCO3)cc1 |  | inconclusive: 13.1 µM [inhibitor, partial curve, poor fit] |
| N/C(CN1CCCCC1)=N\S(=O)(=O)c1cc(Cl)cc(Cl)c1 | inactive: -16.8% |  |
| CC1CCN(S(=O)(=O)c2cc3c4c(c2)CCN4C(=O)CC3)CC1 |  | inconclusive: 11.7 µM [inhibitor, single point] |
| CCOC(=O)N1CCN(Cc2nc3c(c(=O)n(C)c(=O)n3C)n2CCCc2ccccc2)CC1 |  | inconclusive: 13.1 µM [inhibitor, single point] |
| COc1cc(/C=C2\SC(N)=NC2=O)cc(Cl)c1O |  | inconclusive: 18.5 µM [inhibitor, single point] |
| Cn1cnnc1SCC(=O)c1ccc(O)c(O)c1 |  | inconclusive: 1.04 µM [inhibitor, partial curve, poor fit] |
| Brc1ccc(OCCOCCN2CCOCC2)cc1 |  | inconclusive: 0.0657 µM [inhibitor, full curve, poor fit] |
| COc1ccc(CNC(=O)C2CCN(S(=O)(=O)c3ccc4c(c3)CC(C)N4C(=O)C3CC3)CC2)cc1 (stereo not given) |  | active: 14.7 µM |
| COc1ccc(S(=O)(=O)Nc2ccc(F)cc2F)cc1C(=O)N1CCOCC1 |  | inconclusive: 13.1 µM [inhibitor, single point] |
| CC(=O)c1ccc(NC(=O)CSc2ccc3nnc(-c4ccccn4)n3n2)cc1 |  | inconclusive: 3.29 µM [inhibitor, partial curve, poor fit] |
| CCOc1ccc(CN(C(=O)c2cc(=O)c3cc(C)cc(C)c3o2)C2CCS(=O)(=O)C2)cc1 (stereo not given) | inactive: 0.196% |  |
| O=C(CN1CC[n+]2c(-c3cccs3)csc21)c1ccc(Br)cc1 | inactive: 49% |  |
| O=S(=O)(Cc1ccccc1)Nc1ccc(S(=O)(=O)N2CCCC2)cc1 | inactive: 4.56% |  |
| COc1cc(-c2ccccc2)nc(N)n1 |  | active: 3.29 µM |
| COc1ccc(NC(=O)CSc2nc3sc(C)c(C)c3c(=O)n2Cc2ccco2)cc1 |  | inconclusive: 0.0294 µM [inhibitor, full curve, poor fit] |
| Cc1ccc(OCC(=O)OCC(=O)c2ccccc2)cc1C |  | inconclusive: 18.5 µM [inhibitor, single point] |
| CCOC(=O)N1CCN(c2c(N3CCN(c4ccc(OC)cc4)CC3)c(=O)c2=O)CC1 | inactive: 1.56% |  |
| COc1ccc(Cl)cc1C(=O)Nc1nc2ccc(S(C)(=O)=O)cc2s1 |  | inconclusive: 3.7 µM [inhibitor, partial curve] |
| Cc1ccc2c(c1)N(CCCC(=O)NCCCN1CCCC1=O)C(=O)CO2 | inactive: 3.69% |  |
| Cn1cccc1C(=O)NC1CCCCCC1 | inactive: 244% |  |
| COc1ccc(CN2CCSCC2)c(OC)c1C |  | inconclusive: 10.4 µM [inhibitor, single point] |
